# According to PubChem BioAssay AID651768 (National Center for Advancing Translational Sciences (NCATS), 2012):
# By UniProt entry, the sequences of proteins in these tests, tags left out.
# UniProt Q14191, whole entry, looked up: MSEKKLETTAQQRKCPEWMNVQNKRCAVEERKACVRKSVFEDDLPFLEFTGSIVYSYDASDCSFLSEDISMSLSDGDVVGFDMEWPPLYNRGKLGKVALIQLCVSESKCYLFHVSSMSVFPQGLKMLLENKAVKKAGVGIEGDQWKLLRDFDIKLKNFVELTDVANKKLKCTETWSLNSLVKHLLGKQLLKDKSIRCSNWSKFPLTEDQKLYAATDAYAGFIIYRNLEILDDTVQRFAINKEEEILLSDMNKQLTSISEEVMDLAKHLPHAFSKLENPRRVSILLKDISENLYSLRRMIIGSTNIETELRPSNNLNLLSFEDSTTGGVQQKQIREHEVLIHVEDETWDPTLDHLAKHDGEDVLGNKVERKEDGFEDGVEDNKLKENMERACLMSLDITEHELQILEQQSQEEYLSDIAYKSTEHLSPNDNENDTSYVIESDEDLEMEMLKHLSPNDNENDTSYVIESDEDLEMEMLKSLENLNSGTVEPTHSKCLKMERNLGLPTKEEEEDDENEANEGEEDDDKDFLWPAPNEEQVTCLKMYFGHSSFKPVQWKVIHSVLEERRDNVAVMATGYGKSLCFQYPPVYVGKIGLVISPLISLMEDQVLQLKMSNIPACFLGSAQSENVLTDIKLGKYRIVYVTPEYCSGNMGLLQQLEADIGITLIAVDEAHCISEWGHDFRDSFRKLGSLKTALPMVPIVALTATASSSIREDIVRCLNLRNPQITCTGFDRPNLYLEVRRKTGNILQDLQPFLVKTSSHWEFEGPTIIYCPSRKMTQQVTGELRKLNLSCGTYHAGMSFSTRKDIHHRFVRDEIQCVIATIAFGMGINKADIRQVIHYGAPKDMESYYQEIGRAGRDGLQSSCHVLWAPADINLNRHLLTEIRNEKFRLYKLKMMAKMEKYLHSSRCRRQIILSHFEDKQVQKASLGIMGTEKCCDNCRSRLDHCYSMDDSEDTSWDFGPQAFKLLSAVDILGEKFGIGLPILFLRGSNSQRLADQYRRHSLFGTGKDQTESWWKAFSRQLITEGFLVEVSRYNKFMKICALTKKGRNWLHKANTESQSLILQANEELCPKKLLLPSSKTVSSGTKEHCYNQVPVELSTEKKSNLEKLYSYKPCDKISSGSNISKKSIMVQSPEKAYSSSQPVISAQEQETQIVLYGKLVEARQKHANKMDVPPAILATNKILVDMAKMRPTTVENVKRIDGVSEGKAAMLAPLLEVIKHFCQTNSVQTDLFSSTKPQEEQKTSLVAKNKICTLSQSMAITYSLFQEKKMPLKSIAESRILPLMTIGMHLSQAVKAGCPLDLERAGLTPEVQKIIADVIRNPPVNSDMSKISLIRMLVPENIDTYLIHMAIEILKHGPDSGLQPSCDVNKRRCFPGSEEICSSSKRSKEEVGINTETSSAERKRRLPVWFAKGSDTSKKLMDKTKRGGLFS
# Screen size: about 360,000 compounds; about 1,700 (0.47%) were called active. The shares of active, inactive and inconclusive entries below differ from those in the screen. The call rests on the fitted dose curve; in most records, active means well fitted inhibition curve with a large enough effect; inconclusive means small, poorly fitted or top-dose-only effect; inactive means no such curve, though single readings can be large or run the other way. Where the call is inconclusive, the potency comes from a doubtful curve fit.
# Target: Bifunctional 3'-5' exonuclease/ATP-dependent helicase WRN (Homo sapiens) (UniProt Q14191)
# Test: qHTS for Inhibitors of WRN Helicase; further: nearly all actives have a fitted effect of over 55% in size
# Conditions: WRN helicase unwinding, fluorescent forked duplex, kinetic; activity change, negative = inhibition: at 114 µM (top of the series) unless noted
# How it was run: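 Screening of the MLSMR collection measured strand separation of a quenched forked DNA duplex (100 nM) by 20 nM WRN with 2 mM ATP, all final. Compounds were preincubated with enzyme 15 min at room temperature.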
# On the % scale 0 is the no-effect control and ±100 the full control effect; potency means the concentration at half of the fitted maximal effect.
Compound,"activity change, negative = inhibition",Potency
Cc1ccc(S(=O)(=O)N2[C@H](CC(=O)Oc3ccccc3)OC[C@@H]2C(C)C)cc1,inactive: 0.857%,
COc1ccc(F)cc1S(=O)(=O)Nc1cc2c3c(c1)CC(=O)N3CCC2,,"inconclusive: 89.1 µM [inhibitor, single point]"
NNc1ccc([N+](=O)[O-])c2[nH][nH]c(=O)c12,,active: 20 µM
O=C(c1c(O)cc(O)cc1O)C1c2c(cc(O)c3c2O[C@H](c2ccc(O)cc2)[C@@H](O)C3)OC1c1ccc(O)cc1 (some centres undefined),,"inconclusive: 70.8 µM [inhibitor, single point]"
CCN(C[C@H]1N[C@@](Cc2ccccc2)(C(=O)OC)[C@H]2C(=O)N(Cc3ccccc3)C(=O)[C@@H]12)C(=O)C1CCCCC1,,"inconclusive: 56.2 µM [inhibitor, partial curve]"
Cc1ccc2c(CC(=O)OCc3cc(=O)n4c(n3)sc3ccccc34)coc2c1,,"inconclusive: 50.1 µM [inhibitor, partial curve]"
CCC(c1ccccc1)C(CC)c1cc(O)c(O)c(O)c1 (centres undefined),,active: 44.7 µM
O=C(Cn1c(=O)n(Cc2ccco2)c(=O)c2c3c(sc21)CCCCC3)c1ccccc1,,"inconclusive: 50.1 µM [inhibitor, partial curve]"
Cc1nc2ccc(NC(=O)c3ccc([N+](=O)[O-])cc3)cc2[nH]1,,"inconclusive: 89.1 µM [inhibitor, single point]"
CCN(CC)c1ccc(NC(=O)C2CC(=O)N(Cc3ccccc3)C2)cc1 (centres undefined),inactive: -12.7%,
COc1cccc(/C=N/NC(=S)Nc2cccc(C(=O)O)c2)c1O,inactive: 1.56%,
O=C(COC(=O)Cc1ccc(S(=O)(=O)N2CCOCC2)s1)NCCc1ccccc1,,"inconclusive: 44.7 µM [inhibitor, partial curve]"
CCN1CCN(c2nc(C)nc3c2sc(=S)n3C)CC1,inactive: 11.2%,
Cc1ccc(-c2cc(C(=O)NCc3ccco3)c3ccccc3n2)s1,,"inconclusive: 56.2 µM [inhibitor, partial curve]"
C/C(=C\c1ccccc1)C(=O)Nc1nccs1,,"inconclusive: 39.8 µM [inhibitor, single point]"
COc1ccc(Cl)cc1NC(=O)CSc1sc2c(O)cc(=O)[nH]c2c1C#N,,"inconclusive: 39.8 µM [inhibitor, partial curve]"
COc1cc(CNc2ncnc3c2ncn3[C@H]2CN(Cc3ccc(-c4ccccc4)cc3)C[C@@H](CO)O2)cc(OC)c1OC,inactive: -4.15%,
Nc1cc(=O)n(Cc2ccccc2)c(=O)n1-c1ccc(F)cc1,,"inconclusive: 39.8 µM [inhibitor, single point]"
CCOC(CNc1ncnc2sc(-c3ccccc3)cc12)OCC,inactive: 0.648%,
CC(C)(C)c1ccc(C(=O)Nc2ccc(Cl)cc2)cc1,,"inconclusive: 28.2 µM [inhibitor, single point]"
C[C@H](CO)N1C[C@H](C)[C@@H](CN(C)CC2CCCCC2)Oc2c(NC(=O)CCC(F)(F)F)cccc2C1=O,,"inconclusive: 79.4 µM [inhibitor, partial curve]"
CCn1nc(C)c([N+](=O)[O-])c1C(=O)NNC(=O)c1ccc(Cl)cc1,,"inconclusive: 7.94 µM [inhibitor, full curve, poor fit]"
CCOC(=O)c1sc(NC(=O)C2CC=CCC2C(=O)O)nc1C (centres undefined),inactive: -15.7% [at 57.1 µM],

Compound,"activity change, negative = inhibition",Potency
Cc1ccccc1-n1ccnc1SCC(=O)Nc1cccc(S(=O)(=O)NC2=NCCC2)c1,,"inconclusive: 39.8 µM [inhibitor, full curve, poor fit]"
O=C(NC(Cc1ccccc1)C(=O)O)c1ccc(S(=O)(=O)N2CCCCC2)cc1 (centres undefined),inactive: -1.1%,
O=C1NC(=O)C(=Cc2ccccc2)N1,inactive: -0.39%,
Cc1ccc(-n2c(O)c(C=Nc3ccccc3-c3n[nH]c(=S)[nH]c3=O)c3ccccc3c2=O)cc1C,,active: 79.4 µM
O=S(=O)(c1ccccc1)N1CCN(Cc2cccc(Br)c2)CC1,,"inconclusive: 8.91 µM [inhibitor, full curve]"
O=C(CSc1nc(=O)n2cc(Cl)ccc2n1)Nc1ccc2c(c1)OCCO2,,"inconclusive: 56.2 µM [inhibitor, partial curve]"
O=C(/C=C\c1ccco1)NC(=S)Nc1ccccc1O,,"inconclusive: 39.8 µM [inhibitor, partial curve]"
NC(=NCCc1ccccc1)NS(=O)(=O)c1ccccc1,inactive: 6.96%,
CCN(c1ccccc1)S(=O)(=O)c1cc(C(=O)OCC(=O)c2c(N)n(C)c(=O)n(C)c2=O)ccc1C,,active: 31.6 µM
O=C(/C=C/c1ccc([N+](=O)[O-])cc1)c1ccccc(=O)c1O,,"inconclusive: 14.1 µM [inhibitor, partial curve]"
Cc1ccccc1NS(=O)(=O)c1cc(C(=O)N2CCCC2)ccc1Cl,,"inconclusive: 89.1 µM [inhibitor, single point]"
Cc1cccc(N2CC(C(=O)Nc3nnc(SCCC4OCCO4)s3)CC2=O)c1 (centres undefined),,"inconclusive: 50.1 µM [inhibitor, partial curve]"
CCOC(=O)Cc1csc(SCn2nnc3ccccc3c2=O)n1,inactive: 7.82%,
Oc1ccc(Br)cc1/C=N/n1c(C2CCCCC2)n[nH]c1=S,,"inconclusive: 50.1 µM [inhibitor, partial curve]"
O=C(O)[C@@H](c1ccccc1)N1Cc2ccccc2C1=O,,"inconclusive: 21.2 µM [inhibitor, single point]"
O=C(CC(Nc1ccc(F)cc1)c1ccccc1)c1ccccc1 (centres undefined),,"inconclusive: 25.1 µM [inhibitor, single point]"
COc1cccc(OCCNCc2ccccc2)c1,inactive: -16.4%,
CCOC(=O)c1ccc(NC(=O)N2CCN(Cc3ccccc3)CC2)cc1,inactive: -7.65%,
O=C1NN(c2ccccc2)C(=O)/C1=C\c1ccc2c(c1)OCO2,,"inconclusive: 10 µM [inhibitor, full curve, poor fit]"
COC(=O)c1sc(-c2ccc(C(C)(C)C)cc2)cc1NC(=O)c1ccccc1C(=O)O,inactive: 1.81% [at 11.6 µM],
CC1=CN2C(=N)/C(=C/c3ccco3)C(=O)N=C2S1,,"inconclusive: 50.1 µM [inhibitor, partial curve]"
c1coc(-c2nn3c(-c4ccco4)nnc3s2)c1,,"inconclusive: 31.6 µM [inhibitor, partial curve]"
CC12CCC(=O)N1C(C(=O)Nc1cc(Cl)ccc1N1CCOCC1)CS2 (centres undefined),,"inconclusive: 31.6 µM [inhibitor, full curve]"

# Fetched by compound from above (two):
Compound,"activity change, negative = inhibition",Potency
NNc1ccc([N+](=O)[O-])c2[nH][nH]c(=O)c12,,active: 20 µM
Nc1cc(=O)n(Cc2ccccc2)c(=O)n1-c1ccc(F)cc1,,"inconclusive: 39.8 µM [inhibitor, single point]"

# The list continues.

Compound,"activity change, negative = inhibition",Potency
O=C(Nc1nccs1)c1ccc(N2C(=O)C3CCCCC3C2=O)cc1 (centres undefined),,"inconclusive: 56.2 µM [inhibitor, partial curve]"
Cc1cccc(NC(=O)CNC(=O)Cn2ncc(Cl)c(Cl)c2=O)c1C,,"inconclusive: 25.1 µM [inhibitor, full curve]"
O=C(CSc1nnc(-c2cccnc2)n1Cc1ccco1)c1ccccc1,,"inconclusive: 10 µM [inhibitor, partial curve]"
O=C1c2cc(Br)ccc2N(Cc2ccc(Br)cc2)S(=O)(=O)C1c1cc(Cl)c(Cl)cc1[N+](=O)[O-] (centres undefined),,"inconclusive: 79.4 µM [inhibitor, partial curve]"
COc1cccc(NC(=O)CCC2CCN(C(=O)Cc3cccc(F)c3)CC2)c1,,"inconclusive: 79.4 µM [inhibitor, single point]"
COc1cccc(NC(=O)CSc2nc3c(sc4ccccc43)c(=O)n2CCN(C)C)c1,,"inconclusive: 89.1 µM [inhibitor, single point]"
COc1ccc(C2=CC3=C(Br)C(=O)C(C)(OC(=O)c4cccs4)C(=O)C3=CO2)cc1 (centres undefined),,"inconclusive: 56.2 µM [inhibitor, partial curve]"
CS(=O)(=O)c1sc(C#N)c2c1C(=O)CC(c1ccccc1)C2 (centres undefined),,active: 39.8 µM
c1ccn2c(c1)nc1c2nc2ccccn21,inactive: -4.37%,
Cc1noc(NS(=O)(=O)c2ccc(N/C=C\C(=O)c3ccc(Br)cc3)cc2)c1C,inactive: -24.3%,
O=C(N/N=C/c1cccc([N+](=O)[O-])c1)C1COc2ccccc2O1 (centres undefined),inactive: -4.04% [at 57.1 µM],
CC(=O)NCCNc1nc(NC(C)C)nc2cc(-c3ccccc3)sc12,inactive: -1.37%,
COc1cc(/C=N/NC(=O)c2cccnc2)ccc1OC(=O)c1ccc([N+](=O)[O-])cc1,,"inconclusive: 79.4 µM [inhibitor, partial curve]"
O=C1/C(=C/c2ccccc2)CCc2ccc(Cl)nc21,,"inconclusive: 12.6 µM [inhibitor, partial curve, poor fit]"
O=C1CCCC(O)=C1N=Nc1ccc2c(c1)OCO2,inactive: -23.3% [at 57.1 µM],
CCOc1cc(N2CCOCC2)c(OCC)cc1NCC(=O)N1CCN(Cc2ccccc2)CC1,,"inconclusive: 39.8 µM [inhibitor, full curve, poor fit]"
NC(=O)c1ccc(NC(=O)CCC(=O)c2cccs2)cc1,,"inconclusive: 56.2 µM [inhibitor, partial curve]"
CN1CCN(C2=C(Cl)C(=O)N(C3CCCCC3)C2=O)CC1,inactive: 0.535%,
COc1ccccc1N1CCN(CCCCN2C(=O)C3CCCCN3C2=O)CC1 (centres undefined),,"inconclusive: 79.4 µM [inhibitor, single point]"
Cc1occc1-c1nnc(SCC(=O)c2cc3ccccc3oc2=O)o1,,"inconclusive: 100 µM [inhibitor, partial curve, poor fit]"
Brc1cc2c(cc1COc1ccc(-c3nn[nH]n3)cc1)OCO2,inconclusive: -38% [inhibitor] [at 57.1 µM],
Cc1cccc(NC(=O)CN2C(=O)CCSc3ccc(S(=O)(=O)N4CCOCC4)cc32)c1C,inactive: -6.73%,
CC(C)=CC(=O)Nc1nc2ccc([N+](=O)[O-])cc2s1,,"inconclusive: 28.2 µM [inhibitor, single point]"

# Of the compounds above, nine have two or more sulfur atoms.
Compound,"activity change, negative = inhibition",Potency
O=C(COC(=O)Cc1ccc(S(=O)(=O)N2CCOCC2)s1)NCCc1ccccc1,,"inconclusive: 44.7 µM [inhibitor, partial curve]"
CCN1CCN(c2nc(C)nc3c2sc(=S)n3C)CC1,inactive: 11.2%,
COc1ccc(Cl)cc1NC(=O)CSc1sc2c(O)cc(=O)[nH]c2c1C#N,,"inconclusive: 39.8 µM [inhibitor, partial curve]"
Cc1ccccc1-n1ccnc1SCC(=O)Nc1cccc(S(=O)(=O)NC2=NCCC2)c1,,"inconclusive: 39.8 µM [inhibitor, full curve, poor fit]"
Cc1cccc(N2CC(C(=O)Nc3nnc(SCCC4OCCO4)s3)CC2=O)c1 (centres undefined),,"inconclusive: 50.1 µM [inhibitor, partial curve]"
CCOC(=O)Cc1csc(SCn2nnc3ccccc3c2=O)n1,inactive: 7.82%,
COc1cccc(NC(=O)CSc2nc3c(sc4ccccc43)c(=O)n2CCN(C)C)c1,,"inconclusive: 89.1 µM [inhibitor, single point]"
CS(=O)(=O)c1sc(C#N)c2c1C(=O)CC(c1ccccc1)C2 (centres undefined),,active: 39.8 µM
Cc1cccc(NC(=O)CN2C(=O)CCSc3ccc(S(=O)(=O)N4CCOCC4)cc32)c1C,inactive: -6.73%,
